# Assay results as given in article PMC7017090, “Repaglinide Silences the FOXO3/Lumican Axis and Represses the Associated Metastatic Potential of Neuronal Cancer Cells” (Cells, 2019).
# Sequences of proteins named here, by UniProt entry; tags and fusion partners are left off. Residues count along the entry.
# UniProt O43524, 156-269: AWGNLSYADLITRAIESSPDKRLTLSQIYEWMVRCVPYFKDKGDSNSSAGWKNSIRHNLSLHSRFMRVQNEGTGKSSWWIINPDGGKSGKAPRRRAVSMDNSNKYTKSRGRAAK
# The exact form of at least one protein or probe is not confirmed. A weaker result is weaker than the reference pair of the same experiment. For part of these data: Where cells or extracts were used, other partners may take part. For part of these data: At least one verdict rests on a figure or table, not on a statement of the authors.
# Experiments:
# FOXO3(A3)ERtm = FOXO3(A3)ERtm (UniProt O43524); test: EMSA; settings: SH-EP/FOXO3 cell extract, 50 nM 4OHT, Not stated, protein in an extract
# FOXO3-DBD (human) = FOXO3-DBD (human) (UniProt O43524); test: EMSA; settings: with increasing repaglinide, dose-dependent loss of shift; Not stated; FPA and FAM-EMSA as described in ref 24; recombinant protein; residues 156-269
sequence,measurement,setting,value
AGCAAAGTTGTTTTTGATAATG (double strand) [FoxP3 oligonucleotide (FAM)],binding result,"FOXO3(A3)ERtm; cells treated with 55 uM repaglinide 4 h, complex formation inhibited, FPA and FAM-EMSA as described in ref …",binds more weakly
same,binding result,FOXO3(A3)ERtm; FPA and FAM-EMSA as described in ref 24,binds
same,binding result,FOXO3-DBD (human),binds more weakly
